Source: article PMC12040169 (PLOS Biology, 2025)
This is one part of the list.

Test system: T1, CTL2-GFP (C. trachomatis L2/434/Bu, GFP-expressing)
T1 construct: L2/434/Bu, GFP-expressing
Design: species or system HeLa; Intracellular C. trachomatis growth in HeLa cells, bulk GFP fluorescence relative to DMSO
Conditions: bulk GFP, single well; 28.5 h, 10 µM; inhibitor

In order of rising “% of control remaining” value:
1. CC(C)C(=O)N1CC2(CCN(Cc3cccc(C(F)(F)F)c3)CC2)c2ccccc21 [CBK126716]  55.317%
2. Cc1cc(N2CCN(C(=O)c3ccsc3)CC2)nc(C(C)C)n1 [CBK304053]  64.1612%
3. CCn1cc(C2CN(S(=O)(=O)Cc3ccccc3)CCO2)cn1 (centres unmarked) [CBK304129]  77.1896%
4. CCCCOc1ccccc1C1CC(=O)Nc2c(-c3ccccc3F)csc21 (centres unmarked) [CBK294439]  78.863%
5. CC(c1ccc(Cl)cc1Cl)N(C)C(=O)Cn1cnc2c1CCCC2 (centres unmarked) [CBK306387]  80.635%
6. Cc1cccc(C(=O)O)c1NC(=O)Cc1cccc2ccccc12 [CBK268361]  85.5992%
7. CCOC(=O)c1c(NS(=O)(=O)c2cc(Cl)sc2Cl)sc2c1CCCC2 [CBK050397]  86.7522%
8. OCc1cccc(-c2nccnc2NCc2ccc(F)cc2)c1 [CBK037670]  87.2844%
9. Oc1cccc(Sc2nc3ccccc3nc2C(F)(F)F)c1 [CBK093780]  88.0488%
10. CC(C)c1nc(C2CCCN(c3ncc(C#N)cc3Cl)C2)no1 (centres unmarked) [CBK304128]  91.0249%
11. COc1ccc(S(=O)(=O)N2CCN(Cc3ccc4c(c3)OCO4)CC2)c2ccccc12 [CBK074521]  96.4808%
12. c1ccc2oc(-c3cncc(NCCCN4CCOCC4)n3)cc2c1 [CBK066045]  96.8405%
13. O=C(O)c1[nH]c2ccccc2c1C(c1cccs1)c1c(C(=O)O)[nH]c2ccccc12 [CBK267786]  98.3906%
14. Cc1ccccc1C(=O)NC(=S)NCCN1CCOCC1 [CBK288475]  98.9826%
15. CC(=O)NCc1cccc(-c2cc(C(=O)NCCc3cccc(OC(F)(F)F)c3)cnc2-c2ccc(Cl)cc2)c1 [CBK164414]  101.142%
16. O=c1cc(O)cc(CCc2ccccc2)o1 [CBK012714]  101.283%
17. CC1=CCCN(C(=O)C23CCOCC2CN(c2ncccn2)C3)C1 (centres unmarked) [CBK304743]  102.181%
18. Cc1ccc(C(F)(F)F)cc1NCc1csc(C2CCCO2)n1 (centres unmarked) [CBK305424]  103.328%
19. CS(=O)(=O)N1CCC(Nc2nc(-c3cccs3)nc3ccccc23)CC1 [CBK305987]  103.401%
20. CC(NC(=O)CCc1cc2n(n1)CCNC2)c1cn2ccsc2n1 (centres unmarked) [CBK306551]  103.94%
21. CC(NCc1ccncc1)=C1C(=O)c2ccccc2C1=O [CBK262890]  104.973%
22. Cc1nn(C)cc1CN1CCC(C(=O)NCCc2ccccc2)C1 (centres unmarked) [CBK281968]  106.02%
23. Cc1ccc2[nH]nc(C(=O)NC(C)c3ccccn3)c2c1 (centres unmarked) [CBK281887]  107.277%
24. CCOC(=O)c1cn([C@H]2CC[C@H](O)CC2)cc(Oc2ccccc2)c1=O [CBK307565]  107.328%
25. CCOC(=O)c1csc(COc2ccccc2Cl)n1 [CBK057782]  108.784%
26. c1ccc(N2CCN(CC3CN(c4ccccc4)c4ccccc4O3)CC2)cc1 (centres unmarked) [CBK066876]  109.316%
27. CN1CCN(C(=O)c2nc(SCc3ccccc3)ncc2Cl)CC1 [CBK269003]  109.616%
28. O=C(O)Cc1nc(-c2ccccc2)c(-c2ccccc2)s1 [CBK159470]  109.768%
29. CCCn1cc(CN2CC3C[C@@H](O)CN3C[C@@H]2C)c2ccccc21 (some centres unmarked) [CBK285466]  109.884%
30. COCCn1c(SCC(=O)N2CCNC2=O)nc2ccccc21 [CBK305851]  109.889%
31. O=C1CN(C(=O)NCC2COc3ccccc3O2)CCN1 (centres unmarked) [CBK155847]  110.261%
32. O=C(N[C@H]1CCN2C(=O)c3cc(-c4cccs4)ccc3NC(=O)[C@@H]2C1)c1cnccn1 [CBK289559]  111.141%
33. CC1=NN(c2ccc(S(N)(=O)=O)cc2)C(=O)/C1=C\c1ccc(-c2ccc(Cl)c([N+](=O)[O-])c2)o1 [CBK263612]  111.712%
34. Cc1ccc(Oc2cc(C)c([N+](=O)[O-])cn2)c(Br)c1 [CBK002823]  112.187%
35. CC(=O)c1[nH]c(C)c(C(=O)N(C)Cc2cc(-c3ccncc3)no2)c1C [CBK306681]  112.359%
36. Cc1ccc(C)c(OCCNS(=O)(=O)c2cc([N+](=O)[O-])ccc2C)c1 [CBK267393]  112.458%
37. O=C(O)c1ccc(COc2ccccc2/C=N/O)cc1 [CBK288481]  112.512%
38. O=c1c2cc(F)ccc2nc2n1CCN(Cc1ccccc1)CC2 [CBK285300]  114.846%
39. CCCNc1nccnc1-c1ccc(C(=O)N2CCN(C)CC2)cc1 [CBK036892]  115.02%
40. O=C(O)CCSc1nccc(C(F)(F)F)n1 [CBK107864]  116.797%
41. COc1ccc(CCCC(=O)Nc2cc(N3CCNCC3)nc(SC)n2)cc1OC [CBK050261T]  116.801%
42. O=C(N[C@H]1COC(=O)N1)OCc1ccccc1 [CBK007606]  117.501%
43. O=C(O)CC(Cc1ccc(Cl)cc1)C(=O)Nc1ccc([N+](=O)[O-])cc1 (centres unmarked) [CBK261973]  117.76%
44. O=c1cnnc(Nc2ccc(Nc3ccccc3)cc2)[nH]1 [CBK287921]  119.568%
45. O=C(Cn1c(-c2cccs2)cc2cccnc21)NCc1cccnc1 [CBK282457]  119.988%
46. CC1=CC(C)C(=S)NC(C)=C1 (centres unmarked) [CBK022735]  120.043%
47. O=C(Nc1nc2ccc(Br)cc2s1)C1CC2CCC1C2 (centres unmarked) [CBK026397]  120.171%
48. Cc1nc(-c2ccc(S(=O)(=O)NCC3CC3)s2)cs1 [CBK085873]  120.776%
49. COc1ccc(CC(=O)N2CCCC2c2nnc3ccccn23)cc1 (centres unmarked) [CBK304719]  122.44%
50. O=C(Nc1ccccc1-n1ccnc1)c1ncoc1-c1ccc(F)cc1 [CBK282417]  122.895%
51. CCN(CC)C(=O)Cn1nc(C)n2c(cc3oc(C)cc32)c1=O [CBK283609]  123.049%
52. Cc1nc2cc(OCc3ccc(Cn4ccn(C(=O)CCC5CCCC5)c4=O)cc3)ccc2s1 [CBK106641]  123.741%
53. Cc1c(CC(=O)O)c(=O)oc2cc(OCc3ccc(F)cc3)ccc12 [CBK286674]  124.246%
54. Cc1ccc(OCC(=O)N2N=C(CC(C)C)CC2(O)C(F)(F)F)cc1C (centres unmarked) [CBK293935]  124.916%
55. Cn1cccc1CNCCN1CCOCC1 [CBK278187C]  125.089%
56. CCc1nc(C(C)NC(=O)COc2nn(C)c3nc(C)cc(C)c23)cs1 (centres unmarked) [CBK306024]  125.362%
57. COc1ccc(-c2cncc(N3CCN(c4cccc5[nH]ccc45)CC3)n2)cc1 [CBK066087]  125.874%
58. CCCn1nc(C)c(-c2cncn2CC(C)N2CCCCC2)c1C (centres unmarked) [CBK281802]  126.464%
59. O=C(CCN1C(=O)c2cccc([N+](=O)[O-])c2C1=O)Nc1cccc(-c2cnc3ccccc3n2)c1 [CBK268620]  126.565%
60. O=C(c1cncnc1)N1CCN(c2ncccn2)CC1 [CBK144515]  126.856%
61. CSC1=Nc2cc(Cl)ccc2SCC1 [CBK019829]  127.882%
62. Cc1n[nH]c(O)c1C(c1ccc(OC(=O)c2ccc(F)cc2)cc1)c1c(C)n[nH]c1O [CBK264816]  128.348%
63. COCC1(O)CCN(Cc2sccc2Cl)CC1 [CBK304252]  128.858%
64. COc1cc(C(=O)Nc2ccc3oc(-c4cccnc4)nc3c2)ccc1OCc1ccc(Cl)cc1 [CBK264037]  130.479%
65. OCCN(CC#CCC(O)(c1ccccc1)c1ccccc1)CCO [CBK263623]  132.23%
66. CN(CCc1ccncc1)C(=O)CCc1cc(F)ccc1F [CBK304876]  135.013%
67. Cc1cc(C)n(CC(=O)Nc2cccc(CCc3ccncc3)c2)c(=O)n1 [CBK285555]  137.059%
68. CC1(C)CC(CCNC(=O)CCC(=O)O)(c2ccccc2)CCO1 (centres unmarked) [CBK218198]  138.024%
69. O=C(c1ncoc1-c1ccc(F)cc1)N1CCOCC1 [CBK282362]  139.194%
70. CC(=O)Nc1cccc(CN(CCCO)c2ccccc2)c1 [CBK304833]  140.554%
71. C[C@@H](Cn1nc2c(cc1=O)CCCC2)NC(=O)Cc1cccc(F)c1 [CBK284527]  146.182%
72. CCNc1nc(-c2cccc(/C=C/C(=O)O)c2)cn2ccnc12 [CBK066373]  147.051%
73. CCc1noc(CN2CCC(c3c[nH]c4ccc(OC)cc34)CC2)n1 [CBK305960]  148.018%
74. NC(=O)CN1CCCN(c2nccc(OCC3COc4ccccc4O3)n2)CC1 (centres unmarked) [CBK084041]  148.294%
75. OCCN(CC#CC(O)(c1ccccc1)c1cccc(F)c1)CCO (centres unmarked) [CBK301210C]  155.204%
76. Cn1cc(CNCC2CCCN2c2cccnn2)c(-c2cccnc2)n1 (centres unmarked) [CBK305326]  160.267%
77. CC(=O)N1CCC(C(=O)Nc2cnc(-c3ccc(F)cc3)c(-c3ccco3)n2)CC1 [CBK037038]  163.256%
78. COc1cccc(C(c2ccccn2)N(C)C(=O)C2CCN(S(=O)(=O)c3c(C)noc3C)CC2)c1 (centres unmarked) [CBK060212]  173.355%
79. CN(C)CCN(C)c1cncc(-c2ccc(F)cc2F)n1 [CBK065652]  174.52%
80. Cc1ccc(S(=O)(=O)NC(C)C(=O)Nc2ccc(C)c(Cl)c2)cc1 (centres unmarked) [CBK266263]  189.072%
